For this assay, the target named is Hsp70 (protein product of the HSPA1A gene) (human (endogenous in Hek293T)) (UniProt P0DMV8). The experiment in a line: co-IP.

Sequences of proteins named here, by UniProt entry; tags and fusion partners are left off.
UniProt P0DMV8: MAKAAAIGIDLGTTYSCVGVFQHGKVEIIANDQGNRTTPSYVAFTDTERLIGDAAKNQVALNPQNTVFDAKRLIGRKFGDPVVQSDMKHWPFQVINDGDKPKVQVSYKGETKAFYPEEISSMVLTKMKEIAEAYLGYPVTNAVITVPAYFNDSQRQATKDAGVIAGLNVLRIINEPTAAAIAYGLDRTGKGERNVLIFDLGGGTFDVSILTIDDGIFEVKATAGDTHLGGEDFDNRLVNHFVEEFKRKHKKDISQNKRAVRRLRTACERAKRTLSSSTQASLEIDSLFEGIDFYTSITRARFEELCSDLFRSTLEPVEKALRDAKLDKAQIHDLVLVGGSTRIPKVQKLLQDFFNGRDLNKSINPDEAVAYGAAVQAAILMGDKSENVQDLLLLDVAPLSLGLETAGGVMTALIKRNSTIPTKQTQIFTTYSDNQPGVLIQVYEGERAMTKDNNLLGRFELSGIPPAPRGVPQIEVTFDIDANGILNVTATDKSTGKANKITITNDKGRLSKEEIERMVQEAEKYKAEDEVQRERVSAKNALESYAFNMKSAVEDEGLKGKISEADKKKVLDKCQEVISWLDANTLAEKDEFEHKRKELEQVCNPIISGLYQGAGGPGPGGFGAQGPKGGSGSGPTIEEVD
UniProt P27318: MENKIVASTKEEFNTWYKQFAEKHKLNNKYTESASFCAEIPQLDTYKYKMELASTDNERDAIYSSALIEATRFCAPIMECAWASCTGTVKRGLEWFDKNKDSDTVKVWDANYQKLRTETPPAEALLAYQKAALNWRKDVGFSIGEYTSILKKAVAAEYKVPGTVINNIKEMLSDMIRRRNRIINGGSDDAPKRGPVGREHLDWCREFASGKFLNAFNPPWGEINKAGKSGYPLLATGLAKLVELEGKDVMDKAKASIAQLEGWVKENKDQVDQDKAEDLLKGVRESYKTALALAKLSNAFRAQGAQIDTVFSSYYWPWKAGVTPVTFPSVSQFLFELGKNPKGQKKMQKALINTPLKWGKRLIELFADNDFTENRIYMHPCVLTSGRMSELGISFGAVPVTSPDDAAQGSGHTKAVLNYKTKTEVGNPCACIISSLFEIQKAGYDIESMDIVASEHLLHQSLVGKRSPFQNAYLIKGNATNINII

These are yes or no findings as the source states them, for the method shown. Binding seen in cells or lysates may run through a third protein. Some binding calls cover weakened binding; strength is not graded here.

Regarding “Hazara virus (HAZV) nucleoprotein (from UniProt P27318 1-485)”, the binding result was “binds”.
